Data taken from US20130052172A1, “METHODS FOR DIAGNOSING AND TREATING CARDIAC DEFECTS” (priority 2011, published 2013).
At least one compound was matched to its structure with a doubt left.

Test system: isolated hearts
Assay: In vitro global ischemia/reperfusion of isolated perfused hearts, infarct size and recovery of LVDP
Set-up: species or system rat
Description: For in vitro ischemia/reperfusion studies, hearts were perfused retrogradely, as described previously in Baker, J. et al. (Am. J. Physiol. Heart Circ. Physiol., 2000), the entirety of which is incorporated herein by reference. Briefly, hearts were perfused with modified Krebs-Henseleit buffer (120 mM NaCl, 25 mM NaHCO3, 4.7 mM KCl, 1.2 mM KH2PO4, 1.20 mM MgSO4, 11 mM glucose, and 1.8 mM CaCl2) bubbled with 95% O2-5% CO2 for a 40-minute stabilization period and subjected to 25 minutes of global no-flow ischemia, followed by 180 minutes of reperfusion. Before use, all perfusion fluids were filtered through cellulose acetate membranes with a pore size of 5.0 μm to remove particulate matter. Hearts were kept in temperature-controlled chambers to maintain myocardial temperature at 37° C. A balloon connected to a pressure transducer was inserted into the left ventricle to monitor cardiac function. For some experiments, hearts were stabilized for 25 minutes and then perfused with vancomycin or a mixture of antibiotics for 15 minutes before ischemia/reperfusion. During the initial 40 minute reperfusion period, recovery of mechanical function was measured as left ventricular developed pressure (LVDP) under steady-state conditions and expressed as a percentage of preischemic LVDP. […]

COC[C@H]1OC(=O)c2coc3c2[C@@]1(C)C1=C(C3=O)[C@@H]2CCC(=O)[C@@]2(C)C[C@H]1OC(C)=O [Wortmannin] was tested, and the “effect on ability of vancomycin to reduce myocardial necrosis and enhance ventricular function” value (Akt/PI3 kinase inhibitor 100 nM perfused prior to ischemia/reperfusion) was “abolished the ability of vancomycin to reduce myocardial necrosis and to enhance ventricular function” and the “effect of inhibitor alone on cardioprotection” value (inhibitor perfused prior to ischemia/reperfusion, no vancomycin) was “no effect on cardioprotection”.
